# Structures can show the parent of a compound that is named as a salt. Some of the results follow. The calls rarely recur for the same compound in another form.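 Kinases, fused to nanoluciferase, were expressed in K562 cells; luminescence was measured every 4 h from 2 to 18 h as percent of control (DMSO = 100%, positive control = 0%). A time point is decreased if signal falls significantly (2 sigma). Hits were called by the authors by a rule that is not shown; the count of time points alone does not decide it.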
# The chains behind the UniProt entries cited, without tags or fusion partners. Where a name states a change or a piece, a line headed by the entry shows the natural chain unless it says otherwise.
# UniProt P51451: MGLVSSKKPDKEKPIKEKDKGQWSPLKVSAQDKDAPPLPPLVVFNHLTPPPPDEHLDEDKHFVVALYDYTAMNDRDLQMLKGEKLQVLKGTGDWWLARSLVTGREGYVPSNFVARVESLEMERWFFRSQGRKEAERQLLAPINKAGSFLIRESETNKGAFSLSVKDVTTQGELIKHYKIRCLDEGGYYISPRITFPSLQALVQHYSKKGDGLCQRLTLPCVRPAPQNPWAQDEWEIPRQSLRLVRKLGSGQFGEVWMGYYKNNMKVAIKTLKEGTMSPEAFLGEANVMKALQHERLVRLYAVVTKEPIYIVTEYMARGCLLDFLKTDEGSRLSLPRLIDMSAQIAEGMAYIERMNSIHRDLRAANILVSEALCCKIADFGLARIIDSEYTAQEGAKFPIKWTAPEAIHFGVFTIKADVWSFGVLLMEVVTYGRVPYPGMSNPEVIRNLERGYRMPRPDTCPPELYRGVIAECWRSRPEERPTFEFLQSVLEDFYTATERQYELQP
# Target: BLK (UniProt P51451)
# Assay: number of time points (of 5) at which kinase-Nluc abundance scored as decreased, DMSO-normalised (count); higher = more persistent destabilization
# Settings: K562; 2-18 h
row,Compound,number of time points
1,N#Cc1cnc2c(Cl)cc(NCc3cn(CCN4CCCCCC4)nn3)cc2c1Nc1ccc(F)c(Cl)c1 [Cot inhibitor-1] (10 µM),0
2,Cc1cc(Nc2cc(N)ncn2)c(=O)n2c1C(=O)NC21CCCCC1 [Tomivosertib] (10 µM),0
3,CC(Cc1ccc(O)c(O)c1)C(C)Cc1ccc(O)c(O)c1 (stereo not drawn) [Nordihydroguaiaretic acid] (2.5 µM),0
4,CNC(=O)c1ccc2c(C(=Nc3cccc(CN(C)C)c3)c3ccccc3)c(O)[nH]c2c1 [MEK inhibitor] (10 µM),0
5,COC(=O)[C@H](CCSC)NC(=O)c1ccc(NC[C@@H](N)CS)cc1-c1ccccc1 [FTI-277 (hydrochloride)] (10 µM),0
6,C=CC(=O)Nc1ccc(C(=O)Nc2[nH]nc3c2CN(C(=O)N[C@H](CN(C)C)c2ccccc2)C3(C)C)cc1 (10 µM),3
7,CCN(CC)CCCC(C)Nc1nc(C)cc(Nc2ccc3nc(C)cc(N)c3c2)n1 (stereo not drawn) (10 µM),0
8,COc1cc(F)ccc1-c1ncnc(Nc2cccc(C[S@](C)(=N)=O)c2)n1 [Atuveciclib] (2.5 µM),2
9,O=C(c1cccc(Cl)c1F)N1CCN(Cc2cccc(Nc3nccs3)n2)CC1 (2.5 µM),0
10,N#Cc1ccc(-c2cnc3ccc(-c4ccc(C(=O)N5CCOCC5)cc4)cn23)cc1 (10 µM),0
11,Cc1ccc(C(=O)NC2CC2)cc1-n1ncc(C(=O)c2cccc(C#N)c2)c1N [Acumapimod] (10 µM),0
12,N#Cc1ccc(-c2cnc3[nH]cc(NC(=O)c4cccnc4)c3c2)cc1 (10 µM),0
13,CC1(N)CCN(c2cccnc2NC(=O)c2nc(-c3ncccc3C(F)(F)F)cnc2N)CC1 [Darovasertib] (10 µM),0
14,COc1cc(N2CCC(N3CCN(C)CC3)CC2)ccc1Nc1ncc(Cl)c(-c2c[nH]c3ccccc23)n1 (2.5 µM),0
15,CN1CCN(c2ccc(Nc3ncc4cc(C#N)c(=O)n(C5CCCC5)c4n3)cc2)CC1 (10 µM),0
16,CO[C@H]1CC[C@H](N2C(=O)CNc3ncc(-c4ccc(C(C)(C)O)nc4)nc32)CC1 (2.5 µM),0
17,Cc1c(C(=O)Nc2ccc(Oc3ccnc4[nH]cc(-c5ccccc5)c34)c(F)c2)c(=O)n(-c2ccc(F)cc2)n1C (10 µM),0
18,COc1ccc(Nc2ncc(C(F)(F)F)c(NC3CC3)n2)cc1OC (10 µM),3
19,C[C@@H]1O[C@@H](Oc2cc(O)c3c(=O)c(O[C@@H]4O[C@@H](C)[C@H](O)[C@@H](O)[C@H]4O)c(-c4ccc(O)cc4)oc3c2)[C@H](O)[C@H](O)[C@H]1O [Kaempferitrin] (10 µM),0

row,Compound,number of time points
1,COC(=O)Nc1ccc(-c2nc(N3CCOCC3)c3cnn(C4CCN(Cc5cccnc5)CC4)c3n2)cc1 (10 µM),0
2,CC(C)Oc1ccc(F)c(-c2cnc(N)c(C(=O)Nc3cnccc3N3CCC[C@@H](C(=O)O)C3)n2)c1 (2 µM),0
3,O=Nc1c(-c2c(O)[nH]c3cc(Br)ccc23)[nH]c2ccccc12 [GSK 3 Inhibitor IX] (2.5 µM),0
4,NCC1CCC(CNc2nc(NCc3ccccc3OC(F)(F)F)ncc2[N+](=O)[O-])CC1 (stereo not drawn) [PKC-theta inhibitor] (10 µM),1
5,N[C@@H]1CCCN(c2c(/C=C3\SC(=O)NC3=O)cccc2-c2ccccc2)C1 (10 µM),0
6,CCn1c(-c2nonc2N)nc2c(C#CC(C)(C)O)ncc(OC[C@H]3CCCNC3)c21 (10 µM),0
7,CNC(=O)c1cc2c(Oc3ccc(NC(=O)C4(C(=O)Nc5ccc(F)cc5)CC4)cc3)ccnc2cc1OC (2.5 µM),2
8,C=CC(=O)N1CC[C@@H](Oc2nc(Nc3ccc(N4CCC(N5CCN(C)CC5)CC4)cc3)c(C(N)=O)nc2CC)C1 [Naquotinib (mesylate)] (2.5 µM),0
9,C=CC(=O)Nc1cc(Nc2nccc(-c3cn(C)c4ccccc34)n2)c(OC)cc1OCCN(C)C [Rezivertinib] (2.5 µM),1
10,Oc1c(F)cc(-c2cnccc2-c2ccc(N3CCOCC3)cc2)cc1F (10 µM),0
11,Brc1ccc(CSc2nc3ccccc3o2)cc1 [BMP signaling agonist sb4] (10 µM),0
12,O=C1OC(/C=C/c2ccccc2)=NC/1=C\c1cccnc1 (10 µM),0
13,O=C(NCCN1CCOCC1)Nc1nc2ccc(Sc3nnc4ccc(-c5ccc(F)cc5)nn34)cc2s1 (10 µM),0
14,Cn1c(CNc2cccc(C(=O)NCc3ccccc3C(F)(F)F)c2)nnc1-c1ccncc1 (10 µM),0
15,COc1cc2cc(Oc3ccc4ccc(=O)oc4c3)c(=O)oc2cc1O [Daphnoretin] (10 µM),0
16,O=C(O)c1cc(N(Cc2ccccc2O)Cc2cc(O)ccc2O)ccc1O [Lavendustin A] (10 µM),0
17,Cc1c(Cl)cccc1S(=O)(=O)Nc1nc(NCCc2ccccc2)nc2c1CN(Cc1ccccc1)CC2 (2.5 µM),0
18,CO[C@H]1C[C@@H]2CC[C@@H](C)[C@@](O)(O2)C(=O)C(=O)N2CCCC[C@H]2C(=O)O[C@H]([C@H](C)C[C@@H]2CC[C@@H](OC(=O)C(C)(CO)CO)[C@H](OC)C2)CC(=O)[C@H](C)/C=C(\C)[C@@H](O)[C@@H](OC)C(=O)[C@H](C)C[C@H](C)/C=C/C=C/C=C/1C [Temsirolimus] (2.5 µM),0
19,O=C1Nc2ccc(CN3C(=O)CSC3=O)cc2/C1=C/c1cc(CN2CCOCC2)c[nH]1 (10 µM),0

# Random excerpt: 3 records from the list, in no set order.
row,Compound,number of time points
13,O=C(NCCN1CCOCC1)Nc1nc2ccc(Sc3nnc4ccc(-c5ccc(F)cc5)nn34)cc2s1 (10 µM),0
2,CC(C)Oc1ccc(F)c(-c2cnc(N)c(C(=O)Nc3cnccc3N3CCC[C@@H](C(=O)O)C3)n2)c1 (2 µM),0
10,Oc1c(F)cc(-c2cnccc2-c2ccc(N3CCOCC3)cc2)cc1F (10 µM),0
